Experimental data as given in the supplement of paper PMC3334620.
Over roughly 33,000 sequences, “E-score (-0.5 to 0.5)” has its median near -0.016; the highest 2% begin near 0.3. The list shows a part of the results.

Each sequence was assayed against T1, Yer184c (UniProt P39961) (assay: PBM E-score (8-mer binding enrichment) (E-score (-0.5 to 0.5)); higher = stronger / more preferred TF binding). Settings: protein concentration: 100 nM; construct: GST-full length.
T1 sequence: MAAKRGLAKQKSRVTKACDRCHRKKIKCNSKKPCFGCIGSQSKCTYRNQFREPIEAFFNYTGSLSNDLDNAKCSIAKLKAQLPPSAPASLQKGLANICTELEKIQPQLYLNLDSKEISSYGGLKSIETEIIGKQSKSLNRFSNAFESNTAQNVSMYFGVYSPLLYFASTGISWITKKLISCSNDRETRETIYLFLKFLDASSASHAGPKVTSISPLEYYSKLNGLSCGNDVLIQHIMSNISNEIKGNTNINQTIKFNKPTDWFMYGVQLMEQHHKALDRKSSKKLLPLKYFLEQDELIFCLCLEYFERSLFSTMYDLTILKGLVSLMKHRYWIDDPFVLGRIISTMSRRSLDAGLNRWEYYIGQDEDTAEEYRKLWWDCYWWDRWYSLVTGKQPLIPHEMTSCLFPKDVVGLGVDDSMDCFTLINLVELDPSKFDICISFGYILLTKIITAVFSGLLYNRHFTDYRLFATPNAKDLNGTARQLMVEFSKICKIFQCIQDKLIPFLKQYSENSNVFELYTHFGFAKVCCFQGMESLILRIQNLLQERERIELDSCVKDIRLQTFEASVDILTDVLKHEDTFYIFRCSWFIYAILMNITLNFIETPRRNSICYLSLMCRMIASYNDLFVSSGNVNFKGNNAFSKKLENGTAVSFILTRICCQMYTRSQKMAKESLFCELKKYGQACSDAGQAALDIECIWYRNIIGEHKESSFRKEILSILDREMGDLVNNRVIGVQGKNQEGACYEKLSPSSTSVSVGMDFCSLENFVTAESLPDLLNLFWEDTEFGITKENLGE
Procedure, shortened: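 The E-score, a modified Wilcoxon-Mann-Whitney statistic, was computed by the Universal PBM Analysis Suite for every ungapped eight-base word pooled with its reverse complement. Scans behind it were normalised with masliner after bound GST-tagged yeast transcription factors were detected with fluorescent anti-GST. The proteins, at about 100-200 nM, had been applied to universal all-10-mer Agilent arrays made double-stranded by primer extension.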

Sequence | PBM E-score
ATTAACAC | 0.253
CTTTGGTA | -0.103
AGGAACGG | 0.124
CTTAAAGA | 0.0801
CATAACAG | 0.00022
CGTCTCAC | -0.132
AATGCAAG | 0.0204
CAATCCGC | 0.095
CGAGAGAC | -0.152
AACATCAA | 0.156
GCGAGTGA | 0.0703
ACTAAGAT | 0.154
TGGTAAAA | 0.203
CGTAGGTC | -0.29
ATAGAGGG | -0.135
ACTTCTCC | 0.0148
ATACCTAT | -0.054
TATTGCGA | 0.034
CTGGTATA | -0.25
GGCTTATA | -0.00393
TCCCGCCA | -0.0332
ACCGAGTA | 0.126
ATTGGGCG | -0.119
AATCACGC | 0.125
CTATTTAC | 0.154

Sequence | PBM E-score
ATATATTG | 0.0957
GAGCTGAA | -0.0973
GACCCTTA | -0.0736
AAGATTAA | 0.224
GAAACCTA | -0.147
CATTCCTC | -0.0195
AAGCTACA | 0.0204
ATGCTTAA | 0.126
CATCACGC | 0.0116
GCGTTCAC | 0.0628
ATGTTGCC | -0.0147
CAAGCCTG | -0.271
ACTACAGT | -0.065
TCATGTAA | 0.027
AAATGCGT | -0.0131
AGCGGCCC | -0.243
GAGTCTGA | -0.186
CATAGACA | 0.0515
ATTTGTAC | 0.0416
ATTATTAG | 0.121
GGTCTCAA | -0.0247
AGCATGCT | -0.0847
CGACACAG | 0.021
CCCAACAA | -0.0495
CTAGATCC | -0.127

Sequence | PBM E-score
CCTAAACC | -0.174
GCCTGTGA | -0.282
ACGGTGAA | 0.159
GTCGTCAC | -0.0911
AGCACTTA | -0.131
ATTAGGTC | 0.149
ACCGCCGG | 0.291
GAATTAAA | 0.152
GTTGTTCA | -0.0348
TAGTACTA | 0.0671
CTACGTTA | 0.0318
TTCTCAAA | 0.12
CCAGTTTC | -0.0973
CACCCAGG | -0.21
AAGCTAAG | -0.18
CCACGGAG | 0.0656
TCCAAGAA | 0.0388
ATTTTGGG | -0.00148
CAAACTTA | 0.0384
CACATACA | -0.08
AACTACCA | -0.0838
GGTCGTCA | -0.044
AAGCTTAA | 0.102
GCTCTGCA | -0.0884
CACCACGG | -0.137

Sequence | PBM E-score
CTAAACCC | -0.0279
GACTATCC | -0.215
ATTAGTAG | 0.164
CAGAGACA | -0.258
GCCACGGA | 0.148
AACAACTT | 0.0481
CTCCCATC | -0.109
ACACCTCT | -0.335
ACAACTTC | 0.147
CGGCCTCA | 0.189
GAATTAGA | 0.124
ACACTTTG | 0.0368
GCTGCAAA | 0.198
AGCTCGTC | -0.0589
TTATGAAA | 0.175
ATTAGACC | -0.112
CCGCAAAA | 0.257
CAACGACC | 0.065
GTGGGAAA | 0.0324
CGGGCCCA | 0.0473
AGGACCCC | -0.202
CCGATTCA | 0.0391
CCGGGTAC | 0.117
CTCACCCA | -0.0925
TGCTACCA | -0.129

Looked up one by one from the entries so far (six):
Sequence | PBM E-score
AGCTCGTC | -0.0589
AGGACCCC | -0.202
GCTGCAAA | 0.198
CAACGACC | 0.065
CCGCAAAA | 0.257
GTGGGAAA | 0.0324

Later entries.

Sequence | PBM E-score
CTACACTC | -0.133
ACCTCTTG | -0.158
TAGCACGA | 0.0455
AACCCGAA | 0.14
AATCGAAG | 0.198
CACTCCGG | 0.306
CAATCCTG | 0.0876
ATGGCTGA | -0.192
CGCCGGAC | 0.28
CCGATGCC | 0.193
ATTTGCGG | 0.183
TAGCGAGA | 0.00559
AGCCTAGC | -0.143
AACCCTCT | -0.401
CCGCGTCA | -0.202
AGACCCGA | 0.174
GAGGTCCC | -0.0428
AATTATCG | 0.305
TGCGCACA | 0.0153
TACTAGTA | 0.338
ATATTACC | 0.0847
GAGTTCGA | 0.139
AATCGGGG | -0.168
AATATAGC | 0.019
AGAAGAAA | 0.194

Sequence | PBM E-score
GCTAGCAA | -0.00942
CGCGGGGC | 0.127
ACTAGAGC | -0.186
CAGCCGCC | 0.0636
GCTCTCGA | -0.0884
ACATAGGA | -0.241
AGTACGAG | 0.00236
AACGGCGT | 0.0782
CGACTTAG | 0.00134
GCTAACTA | 0.156
GCCCCTTA | -0.318
GCCCTAAA | -0.195
ACTCTTCG | -0.0215
ACCAAACG | -0.0596
ACTCCAGT | -0.245
GAGTTTAC | 0.164
CTACTGTC | -0.171
ACTAACAT | 0.196
CGCGACTC | -0.0899
TATAGAGA | 0.0298
CGTGACAC | 0.0278
AGCAGATG | -0.28
CCATTTCA | -0.27
AATCGAAA | 0.0631
GCAACGAC | -0.056

Sequence | PBM E-score
CTCATGTA | 0.11
AAAGCGGG | -0.254
CAAGAGTA | -0.033
CCGACTCA | -0.0343
CGATCGGA | 0.142
GAGACCAC | -0.0935
AGTTTGTA | 0.0354
CGTATTCA | 0.05
ATATCGAC | 0.0442
CGATTACG | -0.115
ATACCAGC | -0.133
AGGTTGAT | -0.299
ATTTGAAG | 0.00359
GACCTACC | -0.139
AGTCCCAG | -0.169
AAAAAATT | 0.136
CCGTTAAC | 0.161
GGGCCGCA | 0.0547
AGTTGGAC | -0.073
CTCCTTGA | -0.312
CATGTTGG | -0.193
GGCAATCA | 0.0964
